Assay results: PMC7139925

Sequences of proteins named here, by UniProt entry; tags and fusion partners are left off. Residues count along the entry.
UniProt P02769, 25-607: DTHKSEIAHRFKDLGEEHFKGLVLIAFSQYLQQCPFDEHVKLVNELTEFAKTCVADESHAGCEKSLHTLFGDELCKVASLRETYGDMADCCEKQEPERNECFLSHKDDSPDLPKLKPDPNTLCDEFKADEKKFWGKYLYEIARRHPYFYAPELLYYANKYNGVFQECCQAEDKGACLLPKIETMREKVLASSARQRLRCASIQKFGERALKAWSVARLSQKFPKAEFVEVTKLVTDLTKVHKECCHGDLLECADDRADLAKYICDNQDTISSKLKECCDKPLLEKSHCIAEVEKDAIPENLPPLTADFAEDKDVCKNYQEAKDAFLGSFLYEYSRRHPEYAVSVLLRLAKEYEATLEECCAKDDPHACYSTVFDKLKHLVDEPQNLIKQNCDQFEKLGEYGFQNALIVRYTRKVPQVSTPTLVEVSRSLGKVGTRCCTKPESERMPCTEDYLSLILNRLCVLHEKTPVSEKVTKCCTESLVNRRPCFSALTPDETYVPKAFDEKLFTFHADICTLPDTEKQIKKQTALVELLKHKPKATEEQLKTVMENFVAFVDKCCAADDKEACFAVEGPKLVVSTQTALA

How the values were obtained:
VEGF165 = experiment: EMSA; conditions: HEPES/Na+, 25 mM HEPES, 150 mM NaCl, pH 7.4, 30 pmol oligo + 40 pmol protein in 9 uL, 30 min at 4 C, 7% native PAGE in TAE 1X pH 7.8 at r.t., recombinant protein, folded or branched DNA
[1] = target: Bovine serum albumin (BSA) (Bos taurus) (UniProt P02769); experiment: EMSA; conditions: annealed and not annealed, HEPES/Na+, 1:1.3, same result for all three dimers; 25 mM HEPES, 150 mM NaCl, pH 7.4; 30 pmol oligo + 40 pmol protein in 9 uL, 30 min at 4 C; 7% native PAGE in TAE 1X pH 7.8 at r.t.; commercial protein; folded or branched DNA

| Sequence | binding result (VEGF165; annealed, 1:1.3 oligo/protein) | binding result (VEGF165; not annealed, 1:1.3) | binding result [1] | binding result (VEGF165; annealed, 1:1.3, retarded band, free band not fully gone, two V7t1 copies joined 3' to 5' by HEG-based linker (C24H51O20P3), same polarity) | binding result (VEGF165; not annealed, 1:1.3, free band reduced, aggregates present, two V7t1 copies joined 3' to 5' by HEG-based linker (C24H51O20P3), same polarity) |
| --- | --- | --- | --- | --- | --- |
| TGTGGGGGTGGACGGGCCGGGTAGA [V7t1] | binds | binds | no binding |  |  |
| TGTGGGGGTGGACGGGCCGGGTAGA [bisV7t1HEG2] |  |  |  | binds more weakly | binds |

For some assays here: Negatives hold for the conditions tested. For some assays here: The exact form of at least one protein or probe is not confirmed. For some assays here: The comparison behind a weaker result is the experiment's own reference, which may not be listed here. For some assays here: At least one verdict was read from the data and is not stated in words by the source.
